Measured values from patent US20060204957A1, “Mta1s, a steriod hormone receptor corepressor” (priority 2002, published 2006).
No constants are given. Whether binding was seen depends on the method and setting. For some of these results: Binding seen in cells or lysates may run through a third protein. Some entries that bind do so weakly or less than the wild type.

Sequences of proteins named here, by UniProt entry; tags and fusion partners are left off. A change or cut given only in a name is not applied to a line headed by its entry. Residues count along the entry.
UniProt P03372: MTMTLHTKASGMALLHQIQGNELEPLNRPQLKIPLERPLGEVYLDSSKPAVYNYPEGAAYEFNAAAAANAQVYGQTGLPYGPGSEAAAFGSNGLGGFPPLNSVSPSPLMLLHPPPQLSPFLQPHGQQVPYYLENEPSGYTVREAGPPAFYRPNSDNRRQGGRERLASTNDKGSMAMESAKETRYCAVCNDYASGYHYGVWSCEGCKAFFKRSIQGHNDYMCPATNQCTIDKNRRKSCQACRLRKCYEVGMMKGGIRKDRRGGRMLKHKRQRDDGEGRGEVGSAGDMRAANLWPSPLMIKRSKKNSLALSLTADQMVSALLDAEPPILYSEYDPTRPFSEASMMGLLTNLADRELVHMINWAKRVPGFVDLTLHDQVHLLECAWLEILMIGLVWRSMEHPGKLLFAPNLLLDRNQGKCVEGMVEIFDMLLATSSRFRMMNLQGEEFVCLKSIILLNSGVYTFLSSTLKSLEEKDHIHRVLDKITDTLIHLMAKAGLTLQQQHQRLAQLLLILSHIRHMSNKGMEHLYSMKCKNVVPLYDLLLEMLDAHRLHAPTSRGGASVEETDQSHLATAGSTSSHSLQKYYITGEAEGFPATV
GST-AF2 domain of the ER: residues 282-595 of P03372
UniProt P01106, residues 16-454: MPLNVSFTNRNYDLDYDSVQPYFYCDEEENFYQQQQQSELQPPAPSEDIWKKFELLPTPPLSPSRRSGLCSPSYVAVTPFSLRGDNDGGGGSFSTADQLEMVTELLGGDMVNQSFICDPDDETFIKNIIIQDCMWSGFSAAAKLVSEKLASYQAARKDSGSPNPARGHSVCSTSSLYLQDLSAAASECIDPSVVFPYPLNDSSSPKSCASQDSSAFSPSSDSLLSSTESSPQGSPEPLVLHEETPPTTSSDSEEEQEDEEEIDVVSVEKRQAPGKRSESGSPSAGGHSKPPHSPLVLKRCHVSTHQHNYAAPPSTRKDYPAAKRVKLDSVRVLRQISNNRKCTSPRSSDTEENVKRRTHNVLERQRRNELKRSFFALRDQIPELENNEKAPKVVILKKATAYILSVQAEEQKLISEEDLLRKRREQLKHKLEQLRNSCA
UniProt Q13330: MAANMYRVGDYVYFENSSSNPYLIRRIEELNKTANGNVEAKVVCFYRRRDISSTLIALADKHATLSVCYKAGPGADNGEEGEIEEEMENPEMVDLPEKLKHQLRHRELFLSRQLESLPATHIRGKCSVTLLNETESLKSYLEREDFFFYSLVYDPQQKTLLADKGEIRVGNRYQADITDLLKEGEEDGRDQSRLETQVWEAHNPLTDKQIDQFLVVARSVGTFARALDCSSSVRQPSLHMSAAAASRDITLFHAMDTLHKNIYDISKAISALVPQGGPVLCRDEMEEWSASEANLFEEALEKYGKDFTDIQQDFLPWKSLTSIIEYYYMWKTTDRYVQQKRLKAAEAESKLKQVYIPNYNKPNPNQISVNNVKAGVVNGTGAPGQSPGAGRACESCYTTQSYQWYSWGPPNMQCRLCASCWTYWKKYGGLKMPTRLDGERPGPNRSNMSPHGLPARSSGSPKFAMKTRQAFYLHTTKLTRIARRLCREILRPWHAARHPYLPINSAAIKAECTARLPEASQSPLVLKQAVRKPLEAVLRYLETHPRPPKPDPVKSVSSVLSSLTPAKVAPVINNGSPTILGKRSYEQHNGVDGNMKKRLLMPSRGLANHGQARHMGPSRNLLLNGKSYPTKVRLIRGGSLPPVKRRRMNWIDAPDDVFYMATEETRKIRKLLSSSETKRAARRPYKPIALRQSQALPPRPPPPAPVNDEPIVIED

What was measured:
[1] = target: GST-ER (UniProt P03372); assay: GST pull-down (FIG. 3F)
[2] = target: GST-AF2 domain of the ER (UniProt P03372); assay: GST pull-down with the GST-AF2 domain of the ER (FIG. 3G)
[3] = target: Estrogen Receptor α (ER) (UniProt P03372); assay: FIG. 3 legend (immunoprecipitation, GST pull-down)
[4] = target: c-Myc Oncogene (UniProt P01106); assay: FIG. 14 legend

Measured: binding

MTA1s (from UniProt Q13330 1-397)
binds: all assays above
